Results: PMC3629208

By UniProt entry, the sequences of proteins in these tests, tags left out. Where a name states a change or a piece, a line headed by the entry shows the natural chain unless it says otherwise.
UniProt P31750: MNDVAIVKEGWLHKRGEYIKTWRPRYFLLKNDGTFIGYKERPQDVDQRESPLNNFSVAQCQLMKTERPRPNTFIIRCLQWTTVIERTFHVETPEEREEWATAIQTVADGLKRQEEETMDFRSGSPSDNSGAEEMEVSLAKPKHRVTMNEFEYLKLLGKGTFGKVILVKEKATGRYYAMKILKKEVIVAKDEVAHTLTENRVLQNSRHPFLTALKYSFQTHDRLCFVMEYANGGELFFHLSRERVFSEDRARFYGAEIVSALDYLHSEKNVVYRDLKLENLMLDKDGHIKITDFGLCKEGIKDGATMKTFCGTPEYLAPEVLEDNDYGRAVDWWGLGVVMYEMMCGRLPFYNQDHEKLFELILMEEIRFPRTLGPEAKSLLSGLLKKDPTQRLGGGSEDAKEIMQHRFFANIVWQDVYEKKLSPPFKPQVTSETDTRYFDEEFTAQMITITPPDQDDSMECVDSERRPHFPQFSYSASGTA
UniProt P63101: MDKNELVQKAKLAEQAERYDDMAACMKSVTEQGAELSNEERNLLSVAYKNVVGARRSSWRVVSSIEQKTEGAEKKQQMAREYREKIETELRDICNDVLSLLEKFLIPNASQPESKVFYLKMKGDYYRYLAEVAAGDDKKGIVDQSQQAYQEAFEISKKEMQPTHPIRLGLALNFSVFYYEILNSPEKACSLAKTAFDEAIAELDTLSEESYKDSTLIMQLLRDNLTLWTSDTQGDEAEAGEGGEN
UniProt P63085: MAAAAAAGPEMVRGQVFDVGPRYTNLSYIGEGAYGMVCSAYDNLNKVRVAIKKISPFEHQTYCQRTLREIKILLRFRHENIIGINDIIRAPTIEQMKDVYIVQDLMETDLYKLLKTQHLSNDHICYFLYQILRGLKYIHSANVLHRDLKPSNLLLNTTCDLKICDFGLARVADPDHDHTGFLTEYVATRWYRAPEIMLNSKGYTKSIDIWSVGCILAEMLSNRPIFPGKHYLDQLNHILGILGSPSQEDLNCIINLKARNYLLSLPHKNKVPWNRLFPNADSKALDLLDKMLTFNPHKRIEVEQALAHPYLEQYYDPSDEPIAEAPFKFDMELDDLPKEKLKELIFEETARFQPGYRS
UniProt O35685: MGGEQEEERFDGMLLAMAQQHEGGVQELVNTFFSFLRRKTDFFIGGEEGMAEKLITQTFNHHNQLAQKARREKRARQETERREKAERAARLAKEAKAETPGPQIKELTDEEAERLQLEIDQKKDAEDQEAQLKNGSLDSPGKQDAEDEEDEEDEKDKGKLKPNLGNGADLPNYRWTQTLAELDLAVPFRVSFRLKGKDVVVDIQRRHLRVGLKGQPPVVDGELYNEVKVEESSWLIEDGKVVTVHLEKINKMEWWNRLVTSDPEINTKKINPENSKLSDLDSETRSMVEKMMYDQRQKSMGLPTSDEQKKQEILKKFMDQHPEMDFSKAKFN
UniProt O35129: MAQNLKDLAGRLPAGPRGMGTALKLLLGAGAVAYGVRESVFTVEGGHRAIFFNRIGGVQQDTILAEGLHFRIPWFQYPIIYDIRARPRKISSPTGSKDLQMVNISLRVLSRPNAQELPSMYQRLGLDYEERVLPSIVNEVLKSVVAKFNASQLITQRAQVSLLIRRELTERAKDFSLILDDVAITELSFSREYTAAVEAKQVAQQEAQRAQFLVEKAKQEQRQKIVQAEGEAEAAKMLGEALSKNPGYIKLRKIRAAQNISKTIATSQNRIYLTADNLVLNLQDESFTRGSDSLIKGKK

Columns and labels:
[1] = target: Akt (protein kinase B), Akt1 (mouse (endogenous in Neuro 2A)) (UniProt P31750); test: condition: only with neither DSS- nor DSP-crosslinking; affinity purification with mass spectrometry; conventional co-IP with neither DSS- nor DSP-crosslinking: protein A/G agarose with anti-Akt antibody, pre-cleared Neuro 2A lysate overnight, five washes, elution in Laemmli buffer, nanoLC-MS/MS
[2] = target: Akt (protein kinase B), Akt1 (mouse (endogenous in Neuro 2A)) (UniProt P31750); test: affinity purification with mass spectrometry; anti-Akt antibody fixed on the beads via DSS but without DSP-crosslinking, Neuro 2A lysate, nanoLC-MS/MS
[3] = target: Akt (protein kinase B), Akt1 (mouse (endogenous in Neuro 2A)) (UniProt P31750); test: affinity purification with mass spectrometry; two-step crosslinking co-IP: anti-Akt antibody fixed on protein A/G agarose with DSS, incubated overnight at 4°C with pre-cleared Neuro 2A lysate (1.5 mg protein; PBS, 1% NP-40), then 1.6 mM DSP for 2 h, five washes (25 mM Tris, 150 mM NaCl, 1 mM EDTA, 1% NP-40, 5% glycerol, pH 7.4), elution in Laemmli buffer, SDS-PAGE, nanoLC-MS/MS; cells with or without IGF-1 (10 ng/mL, 10 min); negative control serum IgG or secondary antibody

In the case of 14-3-3 ζ/δ (from UniProt P63101 1-245), the binding [1] is reported as “no binding”, the binding [2] is reported as “no binding (only without DSP-crosslinking)” and the binding [3] is reported as “binds”.

With “extracellular regulated kinase-1 and -2 (ERK1/2) (from UniProt P63085 1-358)” the binding [1] was “no binding”, the binding [2] was “binds” and the binding [3] was “binds”.

In the case of “nuclear distribution gene C (Nudc, also named nuclear migration gene C) (from UniProt O35685 1-332)”, the binding [1] is reported as “no binding”, the binding [2] is reported as “no binding (only without DSP-crosslinking)” and the binding [3] is reported as “binds”.

“prohibitin-2 (from UniProt O35129 1-299)” was tested, and the binding [1] was “no binding”, the binding [2] was “no binding (only without DSP-crosslinking)” and the binding [3] was “binds”.

“valosin-containing protein (VCP) (from UniProt Q01853 1-806)” was tested, and the binding [1] was “no binding”, the binding [2] was “no binding (only without DSP-crosslinking)” and the binding [3] was “binds”.

No constants are given. Whether binding was seen depends on the method and setting. Binding seen in cells or lysates may run through a third protein. These calls come from enrichment with a bait or labelling near it, and not all partners need be listed. For part of these data: A no says only that the protein was not detected with the bait.
